Each binder was assayed against T1, hEGFR-Fc (chimeric EGFR protein comprising the extracellular domain of EGFR fused to the Fc domain of IgG1) (human, UniProt P00533 25-645) (assay: Flow cytometry of primary human T cells carrying the CAR, stained with EGFR extracellular domain-IgG1 Fc fusion and an anti-human-IgG1 antibody; T cells without CAR as control).
T1 construct: extracellular domain; Bought (R&D), captured on a Protein A sensor chip; also called hEGFR-Fc (R&D); extracellular domain of EGFR fused to IgG-Fc; not shown: Fc domain of IgG1

binding result	Binder
binds	Myc-S(18.4.2)-8cys-BB-3z (other, Expressed in primary human T cells; The CD8 alpha hinge keeps its cysteines (8cys)) CAR chain: MEQKLISEEDLGGGGSAAVKLTYQGEEKQVDISKIKYVDRAGQFIWFEYDEGGGALGTGWVSEKDAPKELLQMLEKQTTTPAPRPPTPAPTIASQPLSLRPEACRPAAGGAVHTRGLDFACDIYIWAPLAGTCGVLLLSLVITLYCKRGRKKLLYIFKQPFMRPVQTTQEEDGCSCRFPEEEEGGCELRVKFSRSADAPAYKQGQNQLYNELNLGRREEYDVLDKRRGRDPEMGGKPRRKNPQEGLYNELQKDKMAEAYSEIGMKGERRRGKGHDGLYQGLSTATKDTYDALHMQALPPR
binds	S(18.4.2)-8cys-BB-3z (other, Expressed in primary human T cells; The CD8 alpha hinge keeps its cysteines (8cys)) CAR chain: MAAVKLTYQGEEKQVDISKIKYVDRAGQFIWFEYDEGGGALGTGWVSEKDAPKELLQMLEKQTTTPAPRPPTPAPTIASQPLSLRPEACRPAAGGAVHTRGLDFACDIYIWAPLAGTCGVLLLSLVITLYCKRGRKKLLYIFKQPFMRPVQTTQEEDGCSCRFPEEEEGGCELRVKFSRSADAPAYKQGQNQLYNELNLGRREEYDVLDKRRGRDPEMGGKPRRKNPQEGLYNELQKDKMAEAYSEIGMKGERRRGKGHDGLYQGLSTATKDTYDALHMQALPPR
binds	S(18.4.2)-G4S-8cys-BB-3z (other, Expressed in primary human T cells; The CD8 alpha hinge keeps its cysteines (8cys)) CAR chain: MAAVKLTYQGEEKQVDISKIKYVDRAGQFIWFEYDEGGGALGTGWVSEKDAPKELLQMLEKQGGGGSGGGGSTTTPAPRPPTPAPTIASQPLSLRPEACRPAAGGAVHTRGLDFACDIYIWAPLAGTCGVLLLSLVITLYCKRGRKKLLYIFKQPFMRPVQTTQEEDGCSCRFPEEEEGGCELRVKFSRSADAPAYKQGQNQLYNELNLGRREEYDVLDKRRGRDPEMGGKPRRKNPQEGLYNELQKDKMAEAYSEIGMKGERRRGKGHDGLYQGLSTATKDTYDALHMQALPPR

Source: patent publication US20220041687A1 (ST ANNA KINDERKREBSFORSCHUNG, published 2022)
